Laboratory results reported in patent US10138280B2 (INSTITUT PASTEUR, priority 2011, dated 2018).

Assay: general procedure: Fmoc solid-phase peptide synthesis; PS-PHB-Phe Fmoc resin (capacity 0.52 mmol/g), Rapp Polymere; HATU/DIPEA
Conditions: whole synthesis

For “VHVQYIDGETDQMLRQDDLDGYTDETIPYSTAEGIKKFEGDGYELFKDNFPAGEKFDNDDTNDQFYTVIF”, the “final HPLC purity” value (RP-HPLC, absorbance at 230 nm, LC-MS, scale of the general procedure 100 μmolar) was “above 90%”, the isolated yield (overall isolated, scale of the general procedure 100 μmolar) was 2% and the crude yield (scale of the general procedure 100 μmolar) was 76%. It also gave a crude yield (weight yield, scale 100 umol) of 66% and a crude yield (weight yield, scale of the general procedure 100 μmolar) of 65%.

Plain letter strings leave the end groups untold.
